Results are given in words; binding and its absence hold for the method and conditions named. In cells and extracts the contact can be indirect. Binding calls can cover weak binding; strength is not graded here.

From article PMC4390356 come the findings set out here.

Experiment [1] addresses integrin αVβ3 (human (endogenous in corneal fibroblasts)). Nature of the experiment: co-IP; corneal fibroblast lysate in RIPA buffer; magnetic beads coated with anti-integrin αVβ3 or anti-αV antibody; immunoblot with anti-TGFBIp antibody. On the technique in general: A western blot detects proteins with antibodies after separation by electrophoresis.
Experiment [2] deals with integrin αV (human (endogenous in corneal fibroblasts)). The description is as above.

B1: Transforming growth factor-beta-induced protein (TGFBIp) (protein, UniProt Q15582 24-683)
chain: GPAKSPYQLVLQHSRLRGRQHGPNVCAVQKVIGTNRKYFTNCKQWYQRKICGKSTVISYECCPGYEKVPGEKGCPAALPLSNLYETLGVVGSTTTQLYTDRTEKLRPEMEGPGSFTIFAPSNEAWASLPAEVLDSLVSNVNIELLNALRYHMVGRRVLTDELKHGMTLTSMYQNSNIQIHHYPNGIVTVNCARLLKADHHATNGVVHLIDKVISTITNNIQQIIEIEDTFETLRAAVAASGLNTMLEGNGQYTLLAPTNEAFEKIPSETLNRILGDPEALRDLLNNHILKSAMCAEAIVAGLSVETLEGTTLEVGCSGDMLTINGKAIISNKDILATNGVIHYIDELLIPDSAKTLFELAAESDVSTAIDLFRQAGLGNHLSGSERLTLLAPLNSVFKDGTPPIDAHTRNLLRNHIIKDQLASKYLYHGQTLETLGGKKLRVFVYRNSLCIENSCIAAHDKRGRYGTLFTMDRVLTPPMGTVMDVLKGDNRFSMLVAAIQSAGLTETLNREGVYTVFAPTNEAFRALPPRERSRLLGDAKELANILKYHIGDEILVSGGIGALVRLKSLQGDKLEVSLKNNVVSVNKEPVAEPDIMATNGVVHVITNVLQPPANRPQERGDELADSALEIFKQASAFSRASQRSVRLAPVYQKLLERMKH
With B1, the binding result in experiment [1] and in experiment [2] was “binds” throughout.
